Measured values published in patent publication US10548996B2, “Hydrogels for localized radiotherapy” (Washington University, priority 2014, dated 2020).
At least one compound was matched to its structure with a doubt left.

Assay: Percent release of temozolomide from hydrogel over 48 hours
Type: physicochemical
Conditions: FIG. 7A; release measured over 48 hours

Structure (SMILES): Cn1nnc2c(C(N)=O)ncn2c1=O [TMZ, temozolomide]
- time within which TMZ is released from the hydrogel: ≤ 24
